This note sets out measurements from article doi:10.1101/2025.04.25.650208.

Test [1] deals with SecDF (Mycoplasma pneumoniae M129 (endogenous in the cells)). Kind of test: condition: only in the open conformation of the dome complex.
Test [2] shares this target. Kind of test: cross-linking.
Test [3] shares this target. Kind of test: cryo-EM structure.

These are yes or no findings as the source states them, for the method shown. For some assays here: A result given as binding can be weak or reduced; the word gives no strength. For some assays here: In cells and extracts the contact can be indirect.

B1: major dome-forming protein (Mdp) 444 (protein, UniProt P75334 28-1325)
chain: CAQPTASTVEGLFKPSSAFADRTDFSLSSILQKSLINRESFNQYLAMRLAPVLRTFYEDNYDTDIKERLNGFTADTDNAFVSQEQNLRNQFRENYLVHLQTDIFDNTGGNQAAWKLRDVNNKIIDDFISRIFAKNFVEYVQDGVGPLTKPTKSLIENTSNFKNIKLQPKFVNKNAKLKINNDAVYAAIQDKLLDQFITNENPNLVSRVVFTNETPVDGFDNYFNTKVIQSPTPSYQFQVFNKYNQQSGGTKGANGFNLLASNLKSYKNDQSKGIDIPNKFSSDSGGKLLLKASDMFDTFDPSFSAAFIQGYLALQKKSKGADSKEVDSLIKDKSIIENFFVDNNTQAAAAARAASSSSEGTIQLKTASDGGGTTQSTVHKTDLVKIFGDKDVFAGEYKQQIGNTNANQTGGGGSGGGGGTSTGSSTGSSTETTTGNSSKAVVDLIEVKKDSSSQPDYILSRGKDGIHLMAVDGGSHYLTESGRDVAKQKKFLLFRALQTKYGLVDTDTTYDFKLFDEVKKYFDTNRILFLFEALLDLSSDTNNKDNFLSYPQFKKFADSIKSIEKDLKELVQAHYKQAVFNETAVAENKVTLKLAERNQPFIDNERNNQIEQNGLAAKLPYEQDAKTGHYNDLGNYYKDIIDNVDKKGTSTVKTTSSNTGQTKNFSEEVVSKLKDNKKKVEEAAKKHVEALKVFTIPSPLYSQVILVQTKLSFTPESTSLGLNLALNNYLTSTELQNSIKLSYFQEDEAFKKIIDITNLTFSQQSGGTGGTNGNNNLTADNWKIFKETYLLDLFESQAQKSIFGHVGSSDKNSSTKTGIEGVLDTLYSSLNLEERLDSDDVIDYLSYLYTAHWLLKDNLKNYKQSLQSKLSRTSNAFLVWSVDSEKNKNDSQSTLSSTASSTSNTGLIQLRSVVSLAQNQAAGQGGDNNSDITQTEVKNPNFVFGSSVYDWTNSKTPEVNRAADDTSSFFYTKSSSSSTGAAQSSATVLRSLNQASGMTTKTAKNRYGFRGIVTSSTSGSLPEAVSRRLFKQFVNQTEKGVKVGGQMLITTAKSGKATLVLKQQADDAESTTNNAYKGALFSFGSMDNLKNIINGIQTQTEFDALYNHLTSDLNIDVTGVDKNKTLTEQKTSLTSFVDSNFKQSTQSAQRGDTSARSARSATVQIKKTQEDNQNTNYKDVFSRFDGYIGDNKVEEKNYTSYQFLSDGGKYHATFVKQVNLDDVEKIGTDSLKQEDSSKDKRLNLSLEEFLAAIALEALDPNNQTQAINALISGNKKGLVKVGDFRIFSSISAQWVRRF
modifications: N-terminal lipidation site (lipoprotein)
For the molecule B1, the binding entry was “no binding” in test [1], “binds” in test [2] and “binds” in test [3].

B2: SecA (protein, UniProt P75559 1-808)
chain: MGLFNFLKLVSPRHRIYHKASKIANEVEGHKNYYRNLTDVQLLEESNKLVDLVTKQNYTILDVAVAALALIREVVYRETGEFAYRVQIIGAYIVLIGDFAEMMTGEGKTLTIVLAAYVSALEKRGVHVVTVNEYLAQRDATNATKILKRVGMTVGCNFANLAPHLKQAAFACDVTYTTNSELGFDYLRDNMVHRFEDKKIRELHFAIVDEGDSVLIDEARTPLIISGPAKNEFAAYVAVDRFVKKLKEDEYKIDPESRAPALTELGIKHAEKNFKTDNLFALENSDLFHKIINALTAVKVFEQGKEYIVRDGKVLIVDHFTGRILEGRSYSNGLHQAVQAKEMVEIEPENVIVATITYQSFFRLYNRLSAVSGTAFTESEEFLKIYNMVVVPVPTNRPNIRKDRADSVFGTPNIKWLAVVKEVKRIHETGRPILIGTANIDDSELLHNYLQEANIPHEVLNAKNHSREAEIVAKAGQKGAVTISTNMAGRGTDIRLGEGVAEMGGLYVLGTERNESRRIDNQLRGRAGRQGDRGETKFFISLGDALFKRFAHDRIERAITKLGNDTFDSSFFSKMLSRTQKRVEAINFDTRKNLIDYDHVLASQRELIYKQRDKFLLATDLSDMIDKMLEKFVEQFCDQYRNPKNQNLVNHIALSEALNLELNMHGVISPKLFENMTFDATVHKTHSLIGEKITNKVKVLTPPIALIRFREIMITAMDKHWIEHLDNVFKLREGVTLRSMEQTSPLNVYIRETDILFQTMLQKIARDVIIQIANLATPEEFDEELMKANALKKLQALREAHEKSNEGQ
For the molecule B2, in test [3], the binding result is reported as “binds”.

B3: major dome-forming protein (Mdp) 489 (protein, UniProt P75296 27-1300)
chain: CSALNTSNLFPRQNRSKQLIGFTENNIIKPEAVLKAALAEDNGTETILRVNFGEALKSWYQNNKDRNIATRLTIFSENVEDEHDNLLDQKQQAEPINWPIELQKEYDQWGGSESSWKALKLYDRLIADFQSLIFSNIVANVQLTDGSDQFKPTTKDNLDSTSNKIKFVNSKPNDPNGEFFANLQAYLFAQWVVEENPLPLTQAFFAYQAPKDGLDSLYDQAAIGSALQLGYAFPAFREPNNGQSQGKTTFDPTPNSAQNFGDFIKAVFPEQKNGQTQQSNTSSRTGLFDWQTKWNTNGAANKLLVTKSNLRGAFKGVGLATAIIDQYEYLVGGSKTSSLPEVKVDSNKSNQNPLDSFFMEGKDAVAIRSIVSRAKIAMTDQTPGFKVNPAFVKVKQSQQNDTFYQNQRKLSGGQSGDNNSQGKHHYLQDAVRLTSSQAMAAASTGADSSSGTNVGGSSGGNSVLIPLPRSAALTHTQQQVQQTTSTLQTPVYARGDDGTYALAIDGGDYFLANNKRDFTKQADILLYRYLQAKSNNFKENGVEFSLNLLESGSLFQTWAQTGLTAKLYGALVAMMGSGQGTQVKGSVQGSSRAASVSVQTTQQNRQQSTDTQESEVVKLAKSLLKSSADLAKPFTDNPTFKKALTDIQSEYKDYLAAAGKLSEFKKDLGEVSGLQQAIIDRADKYIQLEKQAQKSAIGLGQPLPYQRASDGSYPALEKFFIPEDSAADGKVKASESGSAALVTLKTTDSQKSTNTVKQPDIKPTRENNDKKLKQLTSDVETKASSLITKWGATPQIGSQFSEIVSLKSKDNKPQTNMILALLSDVGIKWTKILNSFKEWFFTNTNDFKNNYDSEKKELKGNEYKDFNDLVKQTLYLRSWQRLTSKEKFGYYKELGSVKAQAAQSGMVSLSSSAAVANAVASSGMQKSGDQTLLELGKKAFESELEASSSDGQYKYLRFLSTLMWLVKDGAKNYKRLLQQAITVGTRAFVSWTVSYDDTATASAAAAKAQVAVLKTAQATNTQSDNPFNKFVQNPDYVQGSETNWFNDKSTPIKPDSLLESESTYNFTAEPFDDKTKSQKRSTGGTTNEKHFFGFNGLTINSPQSVSTASAGLTEQIFNNFGQLVTSSDKSGALSQYKDKATLKRLIQNTNSDAELNAFGEVLHRAVNVDTSNLGRFNSSGEPLISFDNKKKFLVDVVDKLDDVYFNKFEGYVGQTKVKMSDSSSSSQGTKTIRKPKPHHSPRTRVSRLWAMSFRLPTRTLTKFLLVEKLIRTVL
modifications: N-terminal lipidation site (lipoprotein)
Take B3: the binding entry in test [2] is listed as “binds”.
